# In PubChem BioAssay AID2685 (National Center for Advancing Translational Sciences (NCATS), 2010):
# Out of some 320,000 compounds screened, about 2,100 (0.66%) were called active. Inconclusive means that the source gave no clear call. Such entries were picked first, then a sample of the others. Calls follow the shape of the dose curve; as a rule, active = well fitted inhibition curve with a large enough effect in the signal ratio, with a control signal flat (not every such curve was filed as active); inconclusive = small, poorly fitted or top-dose-only effect, or effect the other way, or a change in a side signal; inactive = flat fitted curve, though single readings scatter; the % refers to the signal ratio. Where the call is inconclusive, the potency comes from a doubtful curve fit.
# Experiment: qHTS Assay for Lipid Storage Modulators in Drosophila S3 Cells
# Conditions: BODIPY lipid droplet fluorescence, 18-24 h, cells fed with added oleic acid; lipid storage change, negative = inhibition: at 46.1 µM (top of the series) unless noted
# Source text: NIH Molecular Libraries Probe Production Centers Network [MLPCN] NIH Chemical Genomics Center [NCGC] MLPCN Grant: 1 R03 MH085686-01 Assay Submitter (PI): Beller, Mathias; Max-Planck-Institut fur Biophysikalische Chemie NCGC Assay Overview: Storing lipids as a reservoir for energy or the anabolism of elementary metabolites is a common feature of probably all cells and is conserved from bacteria to humans. The universal cellular lipid storage organelle is the so-called lipid storage droplet (LD). Although ubiquitous, LDs share a simple structure composed of a hydrophobic core that harbors the storage lipids, which is shielded by a droplet-specific phospholipid monolayer to which proteins are attached. The current model of LD biogenesis involves an incorporation of the lipid core into the membrane leaflets of the endoplasmic reticulum (ER) followed by a subsequent budding-like maturation of a LD, which ultimately pinches off. Once released, LD volume can increase by localized lipogenesis or fusion of existing droplet. Storage lipids are re-mobilized enzymatically by lipase activity. Lipase regulation in the adipocyte is heavily studied and involves multiple components including catecholamine signaling, the LD-associated proteins Perilipin and comparative gene identification (CGI-58) and at least two lipases named hormone sensitive lipase (HSL) and adipocyte triglyceride lipase (ATGL). LD regulation outside of the adipocyte is poorly understood and only few components are known. However, there is an urgent need to learn more about ectopic fat depots as mislocalized storage of lipids, for example in the liver or muscle, is an eminent health problem associated with insulin resistance or the metabolic syndrome. We developed a laser-scanning cytometer assay to enable 1,536-well screening and combined the results of the small molecules screen with an RNAi database based on lipid storage.
# Triacsin C (Sigma-Aldrich T-4540), an inhibitor of long-chain fatty acyl CoA synthetase that blocks synthesis of triglycerides, was used as a positive control for lipid under-storage. A total of 23 nL of compound solution of different concentrations were transferred to the assay plates using a Kalypsys pin tool equipped with a 1,536-pin array containing 10-nL slotted pins (FP1S10, 0.457-mm diameter, 50.8 mm long; V&P Scientific). One microliter of oleic acid (400 uM) was added, and the plate was lidded with stainless steel rubber gasket lined lids containing pinholes. […] Fluorescence was detected by excitation of the fluorophores with a 488-nm laser on an Acumen Explorer (TTP Lab Tech). The total intensity in channel 2 (500-530 nm) reflected lipid droplet accumulation. Cells were detected using channel 3 (575-640 nm) with 5-um width and 100-um depth filters. The ratio of the number of objects in PMT channel 2 over the number of objects in PMT channel 3 was also calculated. Percent activity was computed relative to an internal control (100% inhibited lipid droplet deposition due to the presence of 20 uM Triacsin C), which was added to 32 wells/plate.
# % is scaled to controls: 0 for no effect and ±100 for the full control effect; potency is read from the fitted curve at half-maximal effect.
SMILES,"lipid storage change, negative = inhibition",Potency
Cc1c(C(=O)Nc2ccc(F)cc2)c2ccccn2c1CCc1ccncc1,inconclusive: -47.8%,–
CC(C)(C)NCCOc1ccc(Br)cc1,inconclusive: -68.9%,–
Cc1ccc(SCC(=O)Nc2ccc(S(=O)(=O)Nc3ncccn3)cc2)cc1,inconclusive: 8.11%,–
COc1ccc(C)cc1NC(=O)NCc1ccco1,inconclusive: -48.5% [cytotoxic] [at 0.00295 µM],–
Cc1n(C)c2cc(Cl)ccc2[n+]1Cc1ccccc1,inconclusive: 18%,–
CCC(=O)Nc1nnc(S(=O)(=O)N2CCCC2)s1,–,"inconclusive: 18.4 µM [activator, partial curve]"
Cc1ccc(Cl)cc1NC(=O)COC(=O)CC1CCCCC1,–,"inconclusive: 29.1 µM [falling, single point]"
O=C1CC2(CCN(C(=O)c3cccc(Cl)c3)CC2)Oc2ccccc21,inconclusive: -13.8%,–
Cc1cccn2cc(CNS(=O)(=O)c3ccc4ccccc4c3)nc12,–,"inconclusive: 18.4 µM [falling, single point]"
CCO[C@H]1OC(C(=O)N2CCN(Cc3ccccc3)CC2)=C[C@@H](C2CCCCC2)[C@@H]1CCCO,–,active: 20.6 µM
CC(=O)OC(C[N+]1(C)CCCCCC1)c1ccccc1 (configuration not stated),inconclusive: 20.9%,–
O=c1c2[nH]c3cccc(Cl)c3c2ncn1CCN1CCCCC1,inconclusive: 6.72%,–
CCOc1ccc(C2C(C(=O)c3ccco3)=C(O)C(=O)N2Cc2cccnc2)cc1 (configuration not stated),–,"inconclusive: 0.731 µM [falling, full curve]"
COC(=O)N1C(=O)[C@@](Cc2ccccc2)(c2ccccc2)N1C(=O)OC,inconclusive: 11.1%,–
CC(C)C(NC(=S)NCc1ccccc1)C(=O)O (configuration not stated),inconclusive: 41.5%,–
Cc1ccc(C2=NS(=O)(=O)N(C)C(C(=O)Nc3cc(C)n(CC(=O)N4CCCCC4)n3)=C2)cc1,inconclusive: 8.73%,–
Cc1ccc(-c2noc(CCC(=O)N3CCN(c4cccc(C(F)(F)F)c4)CC3)n2)cc1,inconclusive: 93.5%,–
Cc1ccc(S(=O)(=O)NC(=O)c2cccn2C)cc1,inconclusive: 35.6%,–
CCN1C(=O)C(=O)N(CC(=O)N2CCC(C)Sc3ccccc32)C1=O (configuration not stated),inconclusive: 1.06%,–
Clc1cccc(-c2nc(NCC3CCCO3)c3ccccc3n2)c1 (configuration not stated),inconclusive: 10.5%,–
COC(=O)CN1C(=S)N(c2ccc(OC)cc2)C(=O)C1CC(=O)Nc1ccc(F)cc1 (configuration not stated),inconclusive: 28%,–
COC(=O)c1ccc(/C=C/c2c(-c3ccsc3)oc3ccc(N4CCOCC4)cc23)cc1,inconclusive: -3.66%,–

# In the list so far, these contain two or more sulfur atoms.
SMILES,"lipid storage change, negative = inhibition",Potency
Cc1ccc(SCC(=O)Nc2ccc(S(=O)(=O)Nc3ncccn3)cc2)cc1,inconclusive: 8.11%,–
CCC(=O)Nc1nnc(S(=O)(=O)N2CCCC2)s1,–,"inconclusive: 18.4 µM [activator, partial curve]"
